Reference: US9802902B2, “Antifungal compound” (priority 2012, dated 2017)
In brackets after ≈: the same amount, converted by molar mass.

System: Candida albicans (ATCC 10231, yeast)
Assay: MIC by microdilution assay, planktonic C. albicans
Conditions: ATCC10231, 24 h, read-out: MIC against C. albicans, planktonic C. albicans, 22° C., 24 hours

C[C@@H]1[C@H](O)[C@@H](C)/C=C/C=C/C=C/C=C/C=C/C=C/C=C/[C@H](O[C@@H]2O[C@H](C)[C@@H](O)[C@H](N)[C@@H]2O)C[C@@H]2O[C@](O)(C[C@@H](O)C[C@@H](O)[C@H](O)CC[C@@H](O)C[C@@H](O)CC(=O)O[C@H]1C)C[C@H](O)[C@H]2C(=O)O [amphotericin B]
MIC: 3.9 µg/mL (≈ 4.22 µM)

OC(Cn1cncn1)(Cn1cncn1)c1ccc(F)cc1F [fluconazole]
MIC: > 125 µg/mL
